Source: PubChem BioAssay AID1671190 (National Center for Advancing Translational Sciences (NCATS), 2021)
Values joined by “and” are separate entries in the source; they are usually repeats but may differ in a detail not shown here. Equal values may be shown once. Out of some 580,000 compounds screened, about 6,100 (1.1%) were called active. This list was built around the results that the source calls inconclusive (neither active nor inactive); the mix of calls is not that of the screen. Calls come from the whole dose curve; as a rule, active = well fitted inhibition curve with a large enough effect; inconclusive = small, poorly fitted or top-dose-only effect, or another doubt; inactive = no such curve, though single readings can be large or run the other way. A potency beside an inconclusive call is a rough fit, not a confirmed value.

Chains of the proteins cited; added tags and fusions are not shown. Lines headed by an entry give the natural chain unless they say otherwise; changes in a name come on top.
UniProt P18054: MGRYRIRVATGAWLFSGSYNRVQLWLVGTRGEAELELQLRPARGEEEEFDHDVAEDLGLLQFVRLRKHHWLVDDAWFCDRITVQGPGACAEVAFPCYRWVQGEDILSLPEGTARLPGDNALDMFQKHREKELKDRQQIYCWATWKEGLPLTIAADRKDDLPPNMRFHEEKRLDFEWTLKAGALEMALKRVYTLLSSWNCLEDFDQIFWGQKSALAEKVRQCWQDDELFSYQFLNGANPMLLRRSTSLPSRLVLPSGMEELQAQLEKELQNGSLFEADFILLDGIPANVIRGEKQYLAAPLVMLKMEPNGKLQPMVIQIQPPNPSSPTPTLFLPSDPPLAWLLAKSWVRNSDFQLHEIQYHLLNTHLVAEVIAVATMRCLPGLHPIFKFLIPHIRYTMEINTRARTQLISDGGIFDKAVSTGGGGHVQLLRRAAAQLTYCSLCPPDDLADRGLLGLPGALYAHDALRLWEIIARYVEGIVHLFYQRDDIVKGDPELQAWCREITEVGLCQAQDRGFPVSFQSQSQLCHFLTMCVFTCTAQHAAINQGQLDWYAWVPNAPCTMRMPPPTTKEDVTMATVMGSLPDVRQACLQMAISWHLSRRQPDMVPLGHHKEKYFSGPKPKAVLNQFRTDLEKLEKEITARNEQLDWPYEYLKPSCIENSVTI

molecular target: Polyunsaturated fatty acid lipoxygenase ALOX12 (Homo sapiens) (UniProt P18054); assay: Primary qHTS assay for inhibitors of human arachidonate 12S-lipoxygenase (ALOX12): Round 2; details: purified 12hLO, xylenol orange hydroperoxide absorbance; activity change, negative = inhibition: at 108 µM (top of the series) unless noted
Summary of the method: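 Purified human 12hLO at 150 nM in 25 mM Hepes, 0.01% Triton X-100, pH 7.0, preincubated 15 min at room temperature with compound. Reaction started with 40 uM arachidonic acid, 30 min at room temperature. Hydroperoxide measured by Fe-xylenol orange, 573/405 nm absorbance ratio.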
% is set by controls: 0 for no effect and ±100 for the full control effect; potency is the fitted concentration of half-maximal effect.

SMILES | Potency | activity change, negative = inhibition
CCOC(=O)c1c(C)c(C)n2c1NC(=O)C2 | inconclusive: 39.8 µM [inhibitor, partial curve, poor fit] | –
CCc1nn(CCCC(=O)N(C)Cc2ccccc2)c(=O)c2cc3occc3n12 | – | inactive: 0%
CC(C)C[C@H]1CN(CCCC[C@@H]2CNC(=O)C(=O)N2CC2CCCCC2)C(=O)C(=O)N1CCC1CCCCC1 | inconclusive: 89.1 µM [inhibitor, partial curve, poor fit] | –
CC(=O)c1ccc(OCCCC(=O)NC2CCCCC2C)cc1 (centres undefined) | – | inactive: -2.93%
O=C(Cc1ccc(Cl)cc1)NN1C(=O)c2ccccc2C1=O | – | inactive: -0.324%
N#CC1=C(NC(=O)c2ccccc2)CCC(C#N)(c2ccccc2)C1 (centres undefined) | – | inactive: 5.71%
COc1ccc(C(=O)CSc2nc3sc(C)c(C)c3c(=O)[nH]2)cc1C | inconclusive: 89.1 µM [inhibitor, partial curve, poor fit] | –
CCOc1ccc(NC(=O)c2c(NC(=O)CN3CCCC(C)C3)sc3c2CCC3)cc1 (centres undefined) | – | inactive: 37.6%
COc1cc(CCC(=O)OCc2nnc(-c3ccccc3)o2)cc(OC)c1OC | inconclusive: 39.8 µM [inhibitor, partial curve, poor fit] | –
COc1ccc2nc(N(CCN(C)C)C(=O)c3ccc4c(c3)OCCO4)sc2c1 | inconclusive: 70.8 µM [inhibitor, partial curve, poor fit] | –
Cc1cc(=O)oc2cc(OCC(=O)OCC(=O)Nc3ccc(C(C)C)cc3)ccc12 | inconclusive: 35.5 µM [inhibitor, partial curve, poor fit] | –
COc1ccc(-c2c(NC(=O)C(C)C)oc3c(C)cccc3c2=O)cc1OC | inconclusive: 7.94 µM [inhibitor, partial curve, poor fit] | –
CCc1nc2c(OCc3c(C)noc3C)cccn2c1N(C=O)Cc1ccc(OC)cc1 | – | inactive: -16.3%
CCc1cccc2c1N(C(=O)CCc1ncc(-c3c(F)cccc3F)o1)CC2 | inconclusive: 31.6 µM [inhibitor, single point] | –
N#Cc1ccc(CC(O)c2nc(C(=O)Nc3ccccc3)cs2)cc1 (centres undefined) | inconclusive: 28.2 µM [inhibitor, single point] | –
Cc1cccc(Nc2c(-c3cccs3)nc3nc(C)cc(C)n23)c1 | inconclusive: 112 µM [inhibitor, partial curve, poor fit] | –
C#CCn1c(=NC(=O)c2ccco2)sc2cccc(Cl)c21 | – | inactive: 10.5%
Cc1noc(C)c1COc1ccc(C(=O)NNC(=O)c2ccccc2)cc1 | – | inactive: 0.362%
CC(C)(O)CCc1ccc(C(=O)NCCc2c[nH]c(=O)[nH]c2=O)cc1 | inconclusive: 5.01 µM [inhibitor, full curve, poor fit] | –
Cc1ccc2nc(SC(C(=O)Nc3ccc(F)cc3)c3ccccc3)[nH]c2c1 (centres undefined) | inconclusive: 44.7 µM [inhibitor, partial curve, poor fit] | –
COc1ccc(C[N+]2=C(N)NC3=C4CCCCC4n4c(=O)n(-c5ccccc5)c(=O)n4C3C2)c(OC)c1 (centres undefined) | inconclusive: 11.2 µM [inhibitor, partial curve, poor fit] | –
COc1ccc(Nc2nc(NCC3CCCO3)c3ccccc3n2)c(OC)c1 (centres undefined) | inconclusive: 50.1 µM [inhibitor, single point] | –
O=C(Nc1ccccc1N1CCN(C(=O)c2ccccc2)CC1)c1cc(Br)ccc1Cl | – | inactive: -10.5%

SMILES | Potency | activity change, negative = inhibition
O=C(NCCN1CCOCC1)c1ccc(/C=C2\Sc3ccccc3N(Cc3ccccc3F)C2=O)cc1 | inconclusive: 89.1 µM [inhibitor, partial curve, poor fit] | –
COc1ccc(C(CNC(=O)CSc2ccccc2C)N(C)C)cc1 (centres undefined) | – | inactive: 14.6%
Cc1cc(C)cc(OCC(=O)Nc2nc(-c3cccnc3)cs2)c1 | – | inactive: 16.8%
Cn1c(CCN2CCOCC2)nc2cc(NC(=O)c3cccs3)ccc21 | – | inactive: 6.7%
COc1ccc(/C=C2\SC(=O)N(CCNC(=O)Cn3cnnn3)C2=O)cc1 | inconclusive: 6.31 µM [inhibitor, full curve] | –
CCOc1ccccc1C(=O)NCCN1CCC(n2c(=O)[nH]c3ccccc32)CC1 | – | inactive: -23.4%
CCc1ccc(-c2cc(C(=O)Nn3cnnc3)c3ccccc3n2)cc1 | inconclusive: 0.316 µM [inhibitor, full curve, poor fit] | –
O=C(/C=C/c1ccc2c(c1)OCO2)N1CCOCC1 | – | inactive: 0%
COc1ccc(-c2csc(C(O)(c3ccccc3)C(F)(F)F)n2)cn1 (centres undefined) | inconclusive: 79.4 µM [inhibitor, partial curve, poor fit] | –
CCN1CCC[C@H]1CNC(=O)c1c(O)c(Cl)cc(Cl)c1OC | inactive and inconclusive: 1.41 µM [inhibitor, full curve, poor fit] | –
O=C(Nc1nnc(-c2ccc(F)cc2)o1)c1cccc([N+](=O)[O-])c1 | – | inactive: -9.41%
O=C(c1ccc2c(c1)CCN2S(=O)(=O)c1ccccc1)N1CCN(c2cccc(Cl)c2)CC1 | – | inactive: -7.95%
CCOc1c(Cl)cc(Cl)cc1CNCc1cccnc1 | inconclusive: 56.2 µM [inhibitor, partial curve, poor fit] | –
Cc1c(N2C(=O)/C(=C3\C(=O)N(CC(=O)O)c4ccccc43)SC2=S)c(=O)n(-c2ccccc2)n1C | inconclusive: 44.7 µM [inhibitor, partial curve, poor fit] | –
CS(=O)(=O)N1CCCC(C(=O)N2CCc3ccccc3C2)C1 (centres undefined) | – | inactive: 9.25%
CCOc1ccccc1C(=O)NC1CCN(c2cc(C(F)(F)F)nc(C)n2)CC1 | – | inactive: 8.45%
CC(=O)N1N=C(c2ccc(NS(C)(=O)=O)cc2)CC1c1ccc2nccnc2c1 (centres undefined) | inconclusive: 112 µM [inhibitor, single point] | –
CC(OC(=O)c1ccc(CS(C)(=O)=O)cc1)C(=O)c1ccc(Cl)cc1 (centres undefined) | – | inactive: 19.3%
CC1=NOC(=O)/C1=C\c1ccc(-c2ccc(Br)cc2)o1 | active: 44.7 µM | –
Cc1ccc(C)c(-c2cc(C(=O)O)c3cc(C)ccc3n2)c1 | – | inactive: -5.6%
CCCn1c(C)cc(/C=C(\C#N)C(=O)OCC(=O)Nc2ccc(OC)c(Cl)c2)c1C | inconclusive: 25.1 µM [inhibitor, full curve, poor fit] | –
Cc1ccc(CNC(=O)C2CCCN2C(=O)Nc2ccccc2)cc1 (centres undefined) | – | inactive: -1.86%
C=C(CS(=O)(=O)c1ccc2ccccc2c1)c1ccccc1 | inconclusive: 31.6 µM [inhibitor, partial curve, poor fit] | –

Whole records, looked up by structure:
Cc1cccc(Nc2c(-c3cccs3)nc3nc(C)cc(C)n23)c1 is listed with Potency: inconclusive: 112 µM [inhibitor, partial curve, poor fit]
COc1ccc2nc(N(CCN(C)C)C(=O)c3ccc4c(c3)OCCO4)sc2c1 is listed with Potency: inconclusive: 70.8 µM [inhibitor, partial curve, poor fit]
CCOc1ccc(NC(=O)c2c(NC(=O)CN3CCCC(C)C3)sc3c2CCC3)cc1 (centres undefined) is listed with activity change, negative = inhibition: inactive: 37.6%

The list goes on.

SMILES | Potency | activity change, negative = inhibition
O=C(Nc1cccc(C(F)(F)F)c1)/C(=C\c1ccco1)NC(=O)c1cccs1 | inconclusive: 44.7 µM [inhibitor, partial curve, poor fit] | –
Cc1ccc(C)c(NC(=O)Cn2nnc(C(=O)NCCc3ccccc3)c2N)c1 | – | inactive: 0%
S=c1[nH]ccn1-c1c(Cl)cccc1Cl | – | inactive: -24.3%
CN1CCN(CC(O)(c2ccc(Cl)cc2)c2ccc(Cl)cc2)CC1 | inconclusive: 56.2 µM [inhibitor, partial curve, poor fit] | –
O=C1ON=C(c2ccccc2)/C1=C/c1ccc(OS(=O)(=O)c2ccccc2)cc1 | active: 17.8 µM | –
CC1(C)Cc2ccccc2C(/C(=N\Nc2cccc(Cl)c2)C(N)=O)=N1 | inconclusive: 44.7 µM [inhibitor, partial curve, poor fit] | –
CC(C)CC(=O)NC(=S)Nc1ccccc1F | inconclusive: 89.1 µM [inhibitor, partial curve, poor fit] | –
Cc1ccccc1CCNC(=O)c1[nH]c2ccccc2c1Cl | – | inactive: -6.45%
Cc1ccc(C)c(C(=O)N2CC=C(c3c[nH]c4ccccc34)CC2)c1 | inconclusive: 15.8 µM [inhibitor, partial curve, poor fit] | –
CC1CCc2[nH]nc(C(=O)O)c2C1 (centres undefined) | inconclusive: 0.224 µM [inhibitor, full curve, poor fit] | –
CCC1=Nc2cc(C(=O)NCc3ccccc3Cl)ccc2Sc2ccc(C)cc21 | – | inactive: 0.21%
COc1ccc(CC(=O)Nc2ccc(OC(C)=O)cc2C(=O)O)cc1 | – | inactive: -11.3%
COCc1cc(C)nc(SCC(=O)c2ccc(O)c(O)c2)c1C#N | active: 0.891 µM | –
O=C1c2cccc3cccc(c23)C(=O)N1CC1CCN(CC(O)COc2ccc3ccccc3c2)CC1 (centres undefined) | inconclusive: 44.7 µM [inhibitor, partial curve, poor fit] | –
N#Cc1cccc(Nc2ncnc3c2cnn3-c2cccc(Cl)c2)c1 | inconclusive: 141 µM [inhibitor, single point] | –
CCOC(=O)C1=CCC(c2cc3ccccc3[nH]2)NC1 (centres undefined) | inconclusive: 100 µM [inhibitor, single point] | –
CC(C)NC(=O)c1cc(-c2ccc(Br)cc2)on1 | inconclusive: 56.2 µM [inhibitor, partial curve, poor fit] | –
CCOC(=O)C1CCN(C(=O)CN2C(=O)CSc3ccc(S(=O)(=O)N4CCOCC4)cc32)CC1 | – | inactive: 4.25%
CCOC(=O)C1CCCN(S(=O)(=O)c2ccc3c(c2)CCN3C(=O)CC)C1 (centres undefined) | inconclusive: 126 µM [inhibitor, partial curve, poor fit] | –
C=CCOc1cccc(C2C(C(=O)c3ccco3)=C(O)C(=O)N2CCN(CC)CC)c1 (centres undefined) | inconclusive: 44.7 µM [inhibitor, partial curve, poor fit] | –
Cc1ccc(C(=O)O)cc1-n1c(C)ccc1-c1ccccc1 | – | inconclusive: -31.1% [inhibitor]
Cc1ccc(NC(=O)CN(C)CC(=O)Nc2ccc(F)c(Cl)c2)cc1 | inconclusive: 56.2 µM [inhibitor, partial curve, poor fit] | –
O=C(c1nc(-c2ccc(F)cc2)no1)N1CCN(c2ccc(Cl)c(Cl)c2)CC1 | inconclusive: 89.1 µM [inhibitor, single point] | –
